From PMC9283077
Results are given in words; binding and its absence hold for the method and conditions named. In cells and extracts the contact can be indirect. Some binding calls cover weakened binding; strength is not graded here. Where a sequence is shown, tags or fusion partners need not be part of it.

By UniProt entry, the sequences of proteins in these tests, tags left out. Residues count along the entry.
UniProt P00367, residues 54-558: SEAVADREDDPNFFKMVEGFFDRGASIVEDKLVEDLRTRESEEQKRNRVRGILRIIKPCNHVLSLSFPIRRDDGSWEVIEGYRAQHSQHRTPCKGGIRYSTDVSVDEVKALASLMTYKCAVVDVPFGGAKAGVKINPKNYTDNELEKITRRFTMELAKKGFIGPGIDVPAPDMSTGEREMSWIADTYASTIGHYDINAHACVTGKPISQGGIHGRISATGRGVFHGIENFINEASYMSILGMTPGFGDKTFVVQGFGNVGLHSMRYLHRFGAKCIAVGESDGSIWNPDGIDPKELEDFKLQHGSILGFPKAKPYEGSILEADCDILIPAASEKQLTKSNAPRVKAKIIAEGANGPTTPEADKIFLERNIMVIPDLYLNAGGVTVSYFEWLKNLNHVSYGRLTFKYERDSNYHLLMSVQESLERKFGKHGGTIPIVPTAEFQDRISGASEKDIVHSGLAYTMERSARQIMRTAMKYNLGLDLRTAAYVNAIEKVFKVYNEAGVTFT

T1: Sirtuin 4 (SIRT4), Flag-tagged, overexpressed by lentivirus (UniProt Q9Y6E7)
T1 sequence: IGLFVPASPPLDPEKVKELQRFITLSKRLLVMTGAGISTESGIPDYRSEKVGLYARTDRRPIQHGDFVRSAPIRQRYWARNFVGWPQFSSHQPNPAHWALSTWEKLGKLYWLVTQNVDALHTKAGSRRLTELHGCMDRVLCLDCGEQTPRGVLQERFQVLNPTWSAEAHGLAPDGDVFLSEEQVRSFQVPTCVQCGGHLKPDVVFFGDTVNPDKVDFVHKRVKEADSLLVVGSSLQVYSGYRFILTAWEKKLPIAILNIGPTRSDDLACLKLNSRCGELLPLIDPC


Experiments:
[1] = biological target: T1, Sirtuin 4 (SIRT4), Flag-tagged, overexpressed by lentivirus; assay: co-IP; lysate of SIRT4-overexpressing PC-3 and 22rv1 cells in IP lysis buffer; immunoprecipitated with anti-Flag antibody (4-8 ug) at 4°C, protein A/G magnetic beads; GLUD1 detected by western blotting; IgG control
[2] = biological target: glutamate dehydrogenase 1 (GLUD1) (human (endogenous in PC-3 and 22rv1)) (UniProt P00367); assay: co-IP; lysate of PC-3 and 22rv1 cells in IP lysis buffer; immunoprecipitated with GLUD1 antibody (rabbit, 4-8 ug) at 4°C, protein A/G magnetic beads; SIRT4 detected by western blotting; IgG control

| Molecule | binding [1] | binding [2] |
| --- | --- | --- |
| glutamate dehydrogenase 1 (GLUD1) (from UniProt P00367 54-558) (enzyme) | binds | – |
| Sirtuin 4 (SIRT4), Flag-tagged, overexpressed by lentivirus (enzyme, UniProt Q9Y6E7 29-314) IGLFVPASPPLDPEKVKELQRFITLSKRLLVMTGAGISTESGIPDYRSEKVGLYARTDRRPIQHGDFVRSAPIRQRYWARNFVGWPQFSSHQPNPAHWALSTWEKLGKLYWLVTQNVDALHTKAGSRRLTELHGCMDRVLCLDCGEQTPRGVLQERFQVLNPTWSAEAHGLAPDGDVFLSEEQVRSFQVPTCVQCGGHLKPDVVFFGDTVNPDKVDFVHKRVKEADSLLVVGSSLQVYSGYRFILTAWEKKLPIAILNIGPTRSDDLACLKLNSRCGELLPLIDPC | – | binds |
